{"source": "PubChem BioAssay AID686937 (Drosophila RNAi Screening Center, 2013)", "assay": "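Genes whose loss weakens secretory pathway function in fly cells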 (primary screen)", "cell system": "Drosophila S2 cells expressing secreted horseradish peroxidase", "reagents": "long dsRNA against Drosophila genes", "duration": "about 5.5 days (5 days dsRNA, then 12 h reporter induction)", "challenge": "reporter expression induced after 5 days of dsRNA, read 12 h later; inducer not stated", "read-out": "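Chemiluminescent measurement of peroxidase in the medium 12 h after reporter induction, following 5 days of dsRNA, given as a z-score per plate; higher means more secretion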", "direction": "z-score: higher = more reporter secreted into medium", "note": "In all, the deposit lists about 23,000 reagents; shown is a random part of those that have a named target and a result. 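Reduced-secretion tags in replicate 1 do not always agree with the z-scores; no criterion for assigning the tags was given.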 Further read-outs or replicates are left out here. Reagent sequences are not shown. The record does not give: the amount of reagent."}
The first 2 entries as a preview:
{"gene": "CG8252", "DRSC id": "DRSC07126", "z-score, replicate 1": 0.3}
{"gene": "Rpt1 (Regulatory particle triple-A ATPase 1)", "DRSC id": "DRSC07542", "z-score, replicate 1": -5.09}

Main list, from the first entry:
{"gene": "CG8252", "DRSC id": "DRSC07126", "z-score, replicate 1": 0.3}
{"gene": "Rpt1 (Regulatory particle triple-A ATPase 1)", "DRSC id": "DRSC07542", "z-score, replicate 1": -5.09}
{"gene": "beta4GalNAcTB (beta1,4-N-acetylgalactosaminyltransferase B)", "DRSC id": "DRSC14869", "z-score, replicate 1": 0.48}
{"gene": "CG10565", "DRSC id": "DRSC11620", "z-score, replicate 1": 0.08}
{"gene": "RpL11 (Ribosomal protein L11)", "DRSC id": "DRSC07537", "z-score, replicate 1": 0.29}
{"gene": "Gr58a (Gustatory receptor 58a)", "DRSC id": "DRSC03910", "z-score, replicate 1": -0.02}
{"gene": "CG33109", "DRSC id": "DRSC16533", "z-score, replicate 1": 0.16}
{"gene": "fzr (fizzy-related)", "DRSC id": "DRSC18781", "z-score, replicate 1": 0.26}
{"gene": "CG14182", "DRSC id": "DRSC10181", "z-score, replicate 1": 0.22}
{"gene": "CG42715 (retired record)", "DRSC id": "DRSC05499", "z-score, replicate 1": -0.3}
{"gene": "Sce (Sex combs extra)", "DRSC id": "DRSC16825", "z-score, replicate 1": 0.09}
{"gene": "RhoGAP15B (Rho GTPase activating protein at 15B)", "DRSC id": "DRSC19924", "z-score, replicate 1": 0.06}
{"gene": "RhoGAP15B (Rho GTPase activating protein at 15B)", "DRSC id": "DRSC19925", "z-score, replicate 1": 0.01}
{"gene": "ND-ACP", "DRSC id": "DRSC08724", "z-score, replicate 1": 0.03}
{"gene": "CG12126", "DRSC id": "DRSC06103", "z-score, replicate 1": -0.01}
{"gene": "dpr20 (defective proboscis extension response 20)", "DRSC id": "DRSC08265", "z-score, replicate 1": 0.21}
